The target in the assay is recombinant human TNFα (human, UniProt P01375 77-233). Put plainly: ELISA on recombinant human TNFα (data not shown). (In general: In an ELISA, binding on a coated surface is turned into a signal by an enzyme label.)

Chains of the proteins cited; added tags and fusions are not shown. Residues count along the entry.
UniProt P01375, residues 77-233: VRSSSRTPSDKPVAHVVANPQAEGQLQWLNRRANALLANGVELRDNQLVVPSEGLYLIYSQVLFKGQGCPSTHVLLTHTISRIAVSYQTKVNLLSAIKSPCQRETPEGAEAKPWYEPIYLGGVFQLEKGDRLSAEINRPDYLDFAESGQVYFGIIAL

Results are given in words; binding and its absence hold for the method and conditions named. Some binding calls cover weakened binding; strength is not graded here.

B1: TB-A Fab antibody (Fab, V domains shown)
VH: QVQLVQSGAEVKKPGASVKVSCTASGYTFTHYGMNWVRQAPGKGLEWMGWINTYTGEPTYADKFKDRFTFSLETSASTVYMELTSLTSDDTAVYYCARERGDAMDYWGQGTLVTVSS
VL: DIVMTQSPSSLSASVGDRVTLTCTASQSVSNDVVWYQQRPGKAPKLLIYSAFNRYTGVPSRFSGRGYGTDFTLTISSLQPEDVAVYYCQQDYNSPRTFGQGTKLEVKR
Consider B1, for which the binding entry was “binds”.

The record behind these values is patent US20160185850A1 (ESBATECH AN ALCON BIOMEDICAL RESEARCH UNIT, published 2016).
